Assay results as given in PMC10508983, “Nucleotide-free structures of KIF20A illuminate atypical mechanochemistry in this kinesin-6” (Open Biology, 2023).
No constants are given. Whether binding was seen depends on the method and setting. One block for each binder: values may come before it.

What was measured:
Test in all cases: SEC-MALS; 5 mg ml^-1 of each protein injected into a Superdex 200 10/30 Increase column; MALS and refractive index; both purified
[1] = molecular target: KIF20A 55–510 (minimal motor domain construct used for crystallography) (mouse) (UniProt P97329)
[2] = molecular target: KIF20A 25–520 (mouse) (UniProt P97329)
[3] = molecular target: KIF20A 1–565 (full-length functional motor domain) (mouse) (UniProt P97329)
[4] = molecular target: KIF20A 55–565 (mouse) (UniProt P97329)
[5] = molecular target: KIF20A 1–520 (mouse) (UniProt P97329)

B2: KIF20A 25–520 (domain or fragment, UniProt P97329 25-520)
chain: ESTAADLRSVVRKDLLSDCSVISASLEDKQALLEDTSEKVKVYLRIRPFLTSELDRQEDQGCVCIENTETLVLQAPKDSFALKSNERGVGQATHKFTFSQIFGPEVGQVAFFNLTMKEMVKDVLKGQNWLIYTYGVTNSGKTYTIQGTSKDAGILPQSLALIFNSLQGQLHPTPDLKPLLSNEVIWLDSKQIRQEEMKKLSLLIGGLQEEELSTSVKKRVHTESRIGASNSFDSGVAGLSSTSQFTSSSQLDETSQLWAQPDTVPVSVPADIRFSVWISFFEIYNELLYDLLEPPSHQHKRQTLRLCEDQNGNPYVKDLNWIHVRDVEEAWKLLKVGRKNQSFASTHMNQQSSRSHSIFSIRILHLQGEGDIVPKISELSLCDLAGSERCKHQKSGERLKEAGNINTSLHTLGRCIAALRQNQQNRSKQNLIPFRDSKLTRVFQGFFTGRGRSCMIVNVNPCASTYDETLHAAKFSALASQLVHAPPVHLGIPSLH
binding [2]: no binding (tested: 5 mg ml^-1)

B3: KIF20A 1–565 (full-length functional motor domain) (domain or fragment, UniProt P97329 1-565)
chain: MSHRILSPPAGLLSDEDVVDSPILESTAADLRSVVRKDLLSDCSVISASLEDKQALLEDTSEKVKVYLRIRPFLTSELDRQEDQGCVCIENTETLVLQAPKDSFALKSNERGVGQATHKFTFSQIFGPEVGQVAFFNLTMKEMVKDVLKGQNWLIYTYGVTNSGKTYTIQGTSKDAGILPQSLALIFNSLQGQLHPTPDLKPLLSNEVIWLDSKQIRQEEMKKLSLLIGGLQEEELSTSVKKRVHTESRIGASNSFDSGVAGLSSTSQFTSSSQLDETSQLWAQPDTVPVSVPADIRFSVWISFFEIYNELLYDLLEPPSHQHKRQTLRLCEDQNGNPYVKDLNWIHVRDVEEAWKLLKVGRKNQSFASTHMNQQSSRSHSIFSIRILHLQGEGDIVPKISELSLCDLAGSERCKHQKSGERLKEAGNINTSLHTLGRCIAALRQNQQNRSKQNLIPFRDSKLTRVFQGFFTGRGRSCMIVNVNPCASTYDETLHAAKFSALASQLVHAPPVHLGIPSLHSFIKKHSPQVGPGLEKEDKADSDLEDSPEDEADVSVYGKEELLQV
binding [3]: no binding (tested: 5 mg ml^-1)

B5: KIF20A 1–520 (domain or fragment, UniProt P97329 1-520)
chain: MSHRILSPPAGLLSDEDVVDSPILESTAADLRSVVRKDLLSDCSVISASLEDKQALLEDTSEKVKVYLRIRPFLTSELDRQEDQGCVCIENTETLVLQAPKDSFALKSNERGVGQATHKFTFSQIFGPEVGQVAFFNLTMKEMVKDVLKGQNWLIYTYGVTNSGKTYTIQGTSKDAGILPQSLALIFNSLQGQLHPTPDLKPLLSNEVIWLDSKQIRQEEMKKLSLLIGGLQEEELSTSVKKRVHTESRIGASNSFDSGVAGLSSTSQFTSSSQLDETSQLWAQPDTVPVSVPADIRFSVWISFFEIYNELLYDLLEPPSHQHKRQTLRLCEDQNGNPYVKDLNWIHVRDVEEAWKLLKVGRKNQSFASTHMNQQSSRSHSIFSIRILHLQGEGDIVPKISELSLCDLAGSERCKHQKSGERLKEAGNINTSLHTLGRCIAALRQNQQNRSKQNLIPFRDSKLTRVFQGFFTGRGRSCMIVNVNPCASTYDETLHAAKFSALASQLVHAPPVHLGIPSLH
binding [5]: no binding (tested: 5 mg ml^-1)

Other lines, results leading:

binding [1]: no binding (tested: 5 mg ml^-1)
B1: KIF20A 55–510 (minimal motor domain construct used for crystallography) (domain or fragment, UniProt P97329 55-510)
chain: ALLEDTSEKVKVYLRIRPFLTSELDRQEDQGCVCIENTETLVLQAPKDSFALKSNERGVGQATHKFTFSQIFGPEVGQVAFFNLTMKEMVKDVLKGQNWLIYTYGVTNSGKTYTIQGTSKDAGILPQSLALIFNSLQGQLHPTPDLKPLLSNEVIWLDSKQIRQEEMKKLSLLIGGLQEEELSTSVKKRVHTESRIGASNSFDSGVAGLSSTSQFTSSSQLDETSQLWAQPDTVPVSVPADIRFSVWISFFEIYNELLYDLLEPPSHQHKRQTLRLCEDQNGNPYVKDLNWIHVRDVEEAWKLLKVGRKNQSFASTHMNQQSSRSHSIFSIRILHLQGEGDIVPKISELSLCDLAGSERCKHQKSGERLKEAGNINTSLHTLGRCIAALRQNQQNRSKQNLIPFRDSKLTRVFQGFFTGRGRSCMIVNVNPCASTYDETLHAAKFSALASQLVHAP

binding [4]: no binding (tested: 5 mg ml^-1)
B4: KIF20A 55–565 (domain or fragment, UniProt P97329 55-565)
chain: ALLEDTSEKVKVYLRIRPFLTSELDRQEDQGCVCIENTETLVLQAPKDSFALKSNERGVGQATHKFTFSQIFGPEVGQVAFFNLTMKEMVKDVLKGQNWLIYTYGVTNSGKTYTIQGTSKDAGILPQSLALIFNSLQGQLHPTPDLKPLLSNEVIWLDSKQIRQEEMKKLSLLIGGLQEEELSTSVKKRVHTESRIGASNSFDSGVAGLSSTSQFTSSSQLDETSQLWAQPDTVPVSVPADIRFSVWISFFEIYNELLYDLLEPPSHQHKRQTLRLCEDQNGNPYVKDLNWIHVRDVEEAWKLLKVGRKNQSFASTHMNQQSSRSHSIFSIRILHLQGEGDIVPKISELSLCDLAGSERCKHQKSGERLKEAGNINTSLHTLGRCIAALRQNQQNRSKQNLIPFRDSKLTRVFQGFFTGRGRSCMIVNVNPCASTYDETLHAAKFSALASQLVHAPPVHLGIPSLHSFIKKHSPQVGPGLEKEDKADSDLEDSPEDEADVSVYGKEELLQV
